The other results are listed elsewhere or left out.
These targets were tested with Cc1ccc(NC(=O)c2ccc(CN3CC[C@H](N(C)C)C3)c(C(F)(F)F)c2)cc1Nc1nccc(-c2cncnc2)n1 [bafetinib] (assay: log2 fold change, soluble protein after heating vs DMSO (PISA); higher = thermal stabilisation; K562 lysate, 10 uM; active = over 0.2 and 3.5 SD of the protein, either way, in both replicates (recomputed)).
Procedure, shortened: (§1)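 Following dounce homogenisation of K562 pellets in PBS pH 7.4 with 1 mM MgCl2, crude extract at 1 mg/mL protein was incubated for 30 min with 10 μM compound. Aliquots were then heated for 3 min over 48°C-58°C and pooled, NP-40 was added to 0.5% at 4°C, and soluble protein was recovered as the supernatant at 21,000xg for 90 min. Channel-sum-equalised TMTpro 16plex LC-MS/MS quantified this protein. Each value, from duplicates, is a log-two fold change in thermal stability relative to solvent controls.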

Sequences of proteins named here, by UniProt entry; tags and fusion partners are left off. A change or cut given only in a name is not applied to a line headed by its entry.
UniProt Q96QG7: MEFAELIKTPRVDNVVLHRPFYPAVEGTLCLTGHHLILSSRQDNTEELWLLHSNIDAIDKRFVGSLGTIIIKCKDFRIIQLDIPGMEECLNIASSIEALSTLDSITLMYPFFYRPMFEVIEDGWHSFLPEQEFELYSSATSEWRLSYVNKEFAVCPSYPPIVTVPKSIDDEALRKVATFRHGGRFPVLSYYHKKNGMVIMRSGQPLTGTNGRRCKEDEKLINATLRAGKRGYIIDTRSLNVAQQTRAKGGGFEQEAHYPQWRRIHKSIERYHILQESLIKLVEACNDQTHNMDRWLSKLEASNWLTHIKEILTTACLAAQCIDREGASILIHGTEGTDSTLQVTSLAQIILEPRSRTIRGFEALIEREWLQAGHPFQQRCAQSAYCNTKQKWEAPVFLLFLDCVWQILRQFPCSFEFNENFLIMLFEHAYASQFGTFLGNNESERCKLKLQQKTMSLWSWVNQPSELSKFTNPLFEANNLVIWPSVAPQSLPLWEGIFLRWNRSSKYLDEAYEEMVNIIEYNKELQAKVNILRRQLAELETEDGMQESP
UniProt Q9HD23: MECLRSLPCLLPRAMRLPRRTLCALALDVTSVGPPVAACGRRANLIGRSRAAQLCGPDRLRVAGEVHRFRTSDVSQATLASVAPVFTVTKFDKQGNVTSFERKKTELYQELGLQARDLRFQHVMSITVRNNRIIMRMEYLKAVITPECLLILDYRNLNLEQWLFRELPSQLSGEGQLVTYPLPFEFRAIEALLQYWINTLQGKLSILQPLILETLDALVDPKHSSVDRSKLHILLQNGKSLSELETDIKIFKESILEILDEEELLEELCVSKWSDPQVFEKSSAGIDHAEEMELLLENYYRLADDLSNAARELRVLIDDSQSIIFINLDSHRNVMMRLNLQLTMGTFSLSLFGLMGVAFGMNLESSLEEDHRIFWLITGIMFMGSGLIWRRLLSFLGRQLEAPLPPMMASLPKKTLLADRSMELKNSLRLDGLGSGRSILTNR
UniProt P03886, whole entry, looked up: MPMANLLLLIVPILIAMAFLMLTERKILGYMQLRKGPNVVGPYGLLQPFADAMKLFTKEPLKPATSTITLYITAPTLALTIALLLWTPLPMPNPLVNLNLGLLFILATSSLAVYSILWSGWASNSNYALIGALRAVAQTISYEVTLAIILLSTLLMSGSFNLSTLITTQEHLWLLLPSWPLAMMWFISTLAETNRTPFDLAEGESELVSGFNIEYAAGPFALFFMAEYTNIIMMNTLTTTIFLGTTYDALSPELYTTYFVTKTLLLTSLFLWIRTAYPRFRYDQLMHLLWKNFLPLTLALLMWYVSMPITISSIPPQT
UniProt Q13496: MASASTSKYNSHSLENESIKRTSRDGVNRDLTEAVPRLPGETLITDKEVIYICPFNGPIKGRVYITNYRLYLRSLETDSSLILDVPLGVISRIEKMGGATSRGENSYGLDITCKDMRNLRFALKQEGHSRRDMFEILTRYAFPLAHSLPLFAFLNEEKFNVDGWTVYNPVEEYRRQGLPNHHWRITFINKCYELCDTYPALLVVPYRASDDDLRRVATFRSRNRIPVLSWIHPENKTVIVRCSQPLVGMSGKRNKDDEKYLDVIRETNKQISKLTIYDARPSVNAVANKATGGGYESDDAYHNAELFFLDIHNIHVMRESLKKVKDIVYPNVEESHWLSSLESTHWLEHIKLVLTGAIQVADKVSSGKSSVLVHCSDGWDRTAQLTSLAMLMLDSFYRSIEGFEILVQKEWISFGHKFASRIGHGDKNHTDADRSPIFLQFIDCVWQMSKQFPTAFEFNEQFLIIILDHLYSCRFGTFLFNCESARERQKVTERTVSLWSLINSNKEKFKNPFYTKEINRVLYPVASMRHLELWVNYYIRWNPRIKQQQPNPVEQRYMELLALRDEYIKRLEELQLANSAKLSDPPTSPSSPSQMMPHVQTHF
UniProt P52701: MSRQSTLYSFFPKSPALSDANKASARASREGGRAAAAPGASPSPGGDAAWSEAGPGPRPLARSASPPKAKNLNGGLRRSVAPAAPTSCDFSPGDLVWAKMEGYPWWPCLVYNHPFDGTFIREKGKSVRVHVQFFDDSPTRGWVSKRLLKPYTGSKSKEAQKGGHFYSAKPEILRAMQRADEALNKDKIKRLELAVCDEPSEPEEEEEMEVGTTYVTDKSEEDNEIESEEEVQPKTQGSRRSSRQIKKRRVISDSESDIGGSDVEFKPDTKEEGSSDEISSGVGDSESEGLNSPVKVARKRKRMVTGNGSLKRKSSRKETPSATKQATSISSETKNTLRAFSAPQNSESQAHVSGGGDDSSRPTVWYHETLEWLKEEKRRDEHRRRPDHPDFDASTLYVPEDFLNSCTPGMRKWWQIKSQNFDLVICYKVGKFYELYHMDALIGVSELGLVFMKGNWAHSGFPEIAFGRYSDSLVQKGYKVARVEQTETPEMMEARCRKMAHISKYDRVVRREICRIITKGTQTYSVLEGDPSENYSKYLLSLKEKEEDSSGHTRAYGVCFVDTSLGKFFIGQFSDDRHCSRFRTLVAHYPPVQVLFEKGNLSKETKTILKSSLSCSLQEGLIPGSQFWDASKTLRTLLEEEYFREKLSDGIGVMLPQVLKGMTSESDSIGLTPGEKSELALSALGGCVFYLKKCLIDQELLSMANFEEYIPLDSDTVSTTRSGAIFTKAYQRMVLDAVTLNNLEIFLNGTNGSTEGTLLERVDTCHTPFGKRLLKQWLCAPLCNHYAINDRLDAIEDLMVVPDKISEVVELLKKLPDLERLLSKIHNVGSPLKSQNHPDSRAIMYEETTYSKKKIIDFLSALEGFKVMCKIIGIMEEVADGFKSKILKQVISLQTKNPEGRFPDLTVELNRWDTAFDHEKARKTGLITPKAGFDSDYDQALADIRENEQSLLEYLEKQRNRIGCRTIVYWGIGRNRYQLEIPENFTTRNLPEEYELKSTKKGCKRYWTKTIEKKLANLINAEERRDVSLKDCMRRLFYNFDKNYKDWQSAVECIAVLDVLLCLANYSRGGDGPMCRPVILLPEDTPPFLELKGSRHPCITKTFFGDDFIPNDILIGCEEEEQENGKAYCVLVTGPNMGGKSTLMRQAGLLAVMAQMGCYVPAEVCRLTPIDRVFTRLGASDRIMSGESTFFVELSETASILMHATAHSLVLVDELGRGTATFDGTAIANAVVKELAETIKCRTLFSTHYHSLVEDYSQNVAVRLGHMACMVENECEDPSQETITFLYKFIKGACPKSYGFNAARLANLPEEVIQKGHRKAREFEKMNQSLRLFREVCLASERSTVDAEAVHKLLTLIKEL
UniProt Q9Y3D2: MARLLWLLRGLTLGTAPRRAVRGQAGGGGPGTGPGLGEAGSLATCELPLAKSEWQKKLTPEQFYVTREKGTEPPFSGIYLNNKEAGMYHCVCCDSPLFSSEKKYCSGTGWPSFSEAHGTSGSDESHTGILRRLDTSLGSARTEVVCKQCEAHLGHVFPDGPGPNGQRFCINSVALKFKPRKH
UniProt Q13330: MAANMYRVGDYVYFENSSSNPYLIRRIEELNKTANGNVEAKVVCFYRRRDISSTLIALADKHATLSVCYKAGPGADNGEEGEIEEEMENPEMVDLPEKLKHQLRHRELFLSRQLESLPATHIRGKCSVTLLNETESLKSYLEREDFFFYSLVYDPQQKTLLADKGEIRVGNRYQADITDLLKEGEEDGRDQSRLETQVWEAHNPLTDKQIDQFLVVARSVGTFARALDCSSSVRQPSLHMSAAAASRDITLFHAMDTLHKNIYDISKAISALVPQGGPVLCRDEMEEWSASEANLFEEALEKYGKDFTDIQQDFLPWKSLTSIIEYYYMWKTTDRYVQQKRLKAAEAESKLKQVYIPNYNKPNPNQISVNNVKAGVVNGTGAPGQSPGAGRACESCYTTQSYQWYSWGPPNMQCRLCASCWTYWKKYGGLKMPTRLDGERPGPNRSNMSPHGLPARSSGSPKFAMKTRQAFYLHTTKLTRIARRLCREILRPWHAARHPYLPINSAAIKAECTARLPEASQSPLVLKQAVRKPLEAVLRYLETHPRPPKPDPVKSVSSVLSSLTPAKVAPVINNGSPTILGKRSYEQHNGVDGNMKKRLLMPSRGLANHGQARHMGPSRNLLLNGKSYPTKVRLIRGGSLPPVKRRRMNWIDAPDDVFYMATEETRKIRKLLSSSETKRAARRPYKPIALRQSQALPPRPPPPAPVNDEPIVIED
UniProt Q99707: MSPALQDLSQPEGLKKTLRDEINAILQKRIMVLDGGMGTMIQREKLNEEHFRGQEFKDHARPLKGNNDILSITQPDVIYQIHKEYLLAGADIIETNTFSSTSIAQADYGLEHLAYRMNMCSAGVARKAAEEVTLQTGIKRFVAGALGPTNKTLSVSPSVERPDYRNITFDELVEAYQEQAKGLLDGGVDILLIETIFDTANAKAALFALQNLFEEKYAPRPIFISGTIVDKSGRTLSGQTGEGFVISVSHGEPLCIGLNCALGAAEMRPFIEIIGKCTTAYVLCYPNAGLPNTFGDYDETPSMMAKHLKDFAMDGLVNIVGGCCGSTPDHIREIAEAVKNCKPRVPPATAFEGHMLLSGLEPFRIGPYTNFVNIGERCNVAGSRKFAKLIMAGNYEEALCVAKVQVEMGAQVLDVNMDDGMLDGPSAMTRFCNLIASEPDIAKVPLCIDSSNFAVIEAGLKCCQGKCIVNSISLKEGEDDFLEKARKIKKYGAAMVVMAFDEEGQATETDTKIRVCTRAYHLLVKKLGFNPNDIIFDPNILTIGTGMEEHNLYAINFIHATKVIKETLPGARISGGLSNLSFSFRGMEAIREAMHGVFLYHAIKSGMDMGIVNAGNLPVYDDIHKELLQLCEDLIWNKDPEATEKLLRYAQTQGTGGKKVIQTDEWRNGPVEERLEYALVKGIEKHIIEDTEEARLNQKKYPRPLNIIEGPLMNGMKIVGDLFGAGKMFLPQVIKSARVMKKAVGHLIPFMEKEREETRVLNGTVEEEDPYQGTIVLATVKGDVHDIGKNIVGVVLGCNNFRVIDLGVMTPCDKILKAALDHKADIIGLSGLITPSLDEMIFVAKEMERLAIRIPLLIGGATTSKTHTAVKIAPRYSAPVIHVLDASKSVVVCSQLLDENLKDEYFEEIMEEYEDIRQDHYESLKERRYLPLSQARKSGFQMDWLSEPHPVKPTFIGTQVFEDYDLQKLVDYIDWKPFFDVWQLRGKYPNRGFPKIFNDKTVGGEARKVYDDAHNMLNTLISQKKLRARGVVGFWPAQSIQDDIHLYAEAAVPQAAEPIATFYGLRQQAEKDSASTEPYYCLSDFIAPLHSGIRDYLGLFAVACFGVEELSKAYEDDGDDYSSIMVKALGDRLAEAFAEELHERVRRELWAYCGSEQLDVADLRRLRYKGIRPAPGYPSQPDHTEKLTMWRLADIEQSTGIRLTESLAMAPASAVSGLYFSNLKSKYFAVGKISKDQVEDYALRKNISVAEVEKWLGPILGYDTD
UniProt P13995: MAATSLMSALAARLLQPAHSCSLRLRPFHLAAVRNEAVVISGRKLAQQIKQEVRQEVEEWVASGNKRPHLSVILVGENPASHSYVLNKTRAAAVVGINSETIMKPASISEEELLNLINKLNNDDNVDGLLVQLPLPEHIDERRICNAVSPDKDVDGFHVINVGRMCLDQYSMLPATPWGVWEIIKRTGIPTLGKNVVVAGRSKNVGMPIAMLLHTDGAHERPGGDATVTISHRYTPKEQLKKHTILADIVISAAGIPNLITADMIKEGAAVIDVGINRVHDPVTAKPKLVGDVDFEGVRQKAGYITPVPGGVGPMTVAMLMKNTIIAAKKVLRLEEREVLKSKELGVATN
UniProt Q6P444: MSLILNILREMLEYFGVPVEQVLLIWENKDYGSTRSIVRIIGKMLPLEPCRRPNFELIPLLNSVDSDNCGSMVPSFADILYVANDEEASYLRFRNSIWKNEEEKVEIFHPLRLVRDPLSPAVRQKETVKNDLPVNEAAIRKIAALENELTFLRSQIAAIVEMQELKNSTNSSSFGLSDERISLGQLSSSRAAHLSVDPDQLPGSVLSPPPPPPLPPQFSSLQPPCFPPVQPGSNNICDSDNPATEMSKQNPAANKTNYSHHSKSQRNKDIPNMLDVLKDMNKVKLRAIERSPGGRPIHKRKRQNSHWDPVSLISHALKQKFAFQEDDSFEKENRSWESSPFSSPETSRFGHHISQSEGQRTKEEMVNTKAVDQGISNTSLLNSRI
UniProt Q9NZJ7, whole entry, looked up: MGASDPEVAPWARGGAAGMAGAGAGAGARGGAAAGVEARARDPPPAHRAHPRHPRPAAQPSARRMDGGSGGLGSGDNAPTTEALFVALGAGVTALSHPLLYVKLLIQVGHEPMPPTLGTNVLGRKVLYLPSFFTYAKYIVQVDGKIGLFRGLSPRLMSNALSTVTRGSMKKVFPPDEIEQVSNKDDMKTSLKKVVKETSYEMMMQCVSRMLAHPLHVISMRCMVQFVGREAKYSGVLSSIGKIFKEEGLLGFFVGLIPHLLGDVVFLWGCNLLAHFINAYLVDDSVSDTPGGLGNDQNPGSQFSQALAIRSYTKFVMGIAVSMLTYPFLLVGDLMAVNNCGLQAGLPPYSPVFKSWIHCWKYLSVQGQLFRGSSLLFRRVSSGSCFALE

log2 fold change, inactive:
MRPL4 (UniProt Q9BYD3) 0.013
MRPS9 (UniProt P82933) 0.018
MTMR9 (UniProt Q96QG7) -0.114
MRPL28 (UniProt Q13084) -0.04
MRPL41 (UniProt Q8IXM3) -0.034
MRPS22 (UniProt P82650) -0.042
MRPL45 (UniProt Q9BRJ2) -0.019
MRPS18A isoform 2 (UniProt Q9NVS2) 0
MRPL50 (UniProt Q8N5N7) 0.059
MTIF2 (UniProt P46199) -0.066
MRS2 (UniProt Q9HD23) 0.059
MT-ND1 (UniProt P03886) 0.022
MRPS30 (UniProt Q9NP92) -0.157
MTM1 (UniProt Q13496) 0.017
MRPS18B (UniProt Q9Y676) -0.091
MRPL32 (UniProt Q9BYC8) -0.001
MRPS5 (UniProt P82675) -0.002
MSH6 (UniProt P52701) -0.051
MSRB2 (UniProt Q9Y3D2) 0.029
MTA1 (UniProt Q13330) 0.023
MSI2 (UniProt Q96DH6) -0.066
MRPL9 (UniProt Q9BYD2) 0.097
MRPS10 (UniProt P82664) -0.021
MRPS36 (UniProt P82909) 0.033
MSN (UniProt P26038) 0.026
MRPS28 (UniProt Q9Y2Q9) -0.001
MTR (UniProt Q99707) -0.053
MTHFD2 (UniProt P13995) 0.019
MRPS31 (UniProt Q92665) -0.009
MTFR2 (UniProt Q6P444) -0.075
MRPL40 (UniProt Q9NQ50) 0.015
MRPL54 (UniProt Q6P161) -0.071
MRPL44 (UniProt Q9H9J2) -0.105
MT-ATP6 (UniProt P00846) 0.154
MT-CO1 (UniProt P00395) 0.041
MRPL58 (UniProt Q14197) -0.03
MTA2 (UniProt O94776) -0.009
MTCH1 (UniProt Q9NZJ7) 0.122
MTX1 (UniProt Q13505) 0.018

Each target was assayed with Cc1cccc(CC(=O)N2CCc3c2ccc(-c2cn(C)c4ncnc(N)c24)c3F)n1 in the same assay as above.
Procedure, shortened: as §1

log2 fold change, inactive:
MRPL4 (UniProt Q9BYD3) -0.134
MRPS9 (UniProt P82933) 0.101
MTMR9 (UniProt Q96QG7) -0.045
MRPL28 (UniProt Q13084) -0.228
MRPL41 (UniProt Q8IXM3) 0.024
MRPS22 (UniProt P82650) -0.024
MRPL45 (UniProt Q9BRJ2) 0
MRPS18A isoform 2 (UniProt Q9NVS2) -0.226
MRPL50 (UniProt Q8N5N7) 0.093
MTIF2 (UniProt P46199) -0.07
MRS2 (UniProt Q9HD23) 0.012
MT-ND1 (UniProt P03886) 0.007
MRPS30 (UniProt Q9NP92) 0.198
MTM1 (UniProt Q13496) -0.01
MRPS18B (UniProt Q9Y676) 0.008
MRPL32 (UniProt Q9BYC8) 0.033
MRPS5 (UniProt P82675) 0.044
MSH6 (UniProt P52701) 0.022
MSRB2 (UniProt Q9Y3D2) -0.021
MTA1 (UniProt Q13330) 0.017
MSI2 (UniProt Q96DH6) 0.07
MRPL9 (UniProt Q9BYD2) 0.049
MRPS10 (UniProt P82664) 0.026
MRPS36 (UniProt P82909) 0.038
MSN (UniProt P26038) -0.028
MRPS28 (UniProt Q9Y2Q9) -0.064
MTR (UniProt Q99707) 0.039
MTHFD2 (UniProt P13995) 0.055
MRPS31 (UniProt Q92665) 0.051
MTFR2 (UniProt Q6P444) 0.146
MRPL40 (UniProt Q9NQ50) -0.026
MRPL54 (UniProt Q6P161) -0.071
MRPL44 (UniProt Q9H9J2) 0.016
MT-ATP6 (UniProt P00846) 0.175
MT-CO1 (UniProt P00395) -0.003
MRPL58 (UniProt Q14197) -0.119
MTA2 (UniProt O94776) 0.021
MTCH1 (UniProt Q9NZJ7) 0.063
MTX1 (UniProt Q13505) 0.043
